Assay results published in article PMC4513121.
Results are given in words; binding and its absence hold for the method and conditions named. In cells and extracts the contact can be indirect. Some entries that bind do so weakly or less than the wild type. Sequences can lack the tags named with a protein.

Amino acid sequences for entries named in this document (tags omitted). A change or cut given only in a name is not applied to a line headed by its entry. Chains listed by the source or under a name are the forms on record and can include a tag or linker.
UniProt P05412: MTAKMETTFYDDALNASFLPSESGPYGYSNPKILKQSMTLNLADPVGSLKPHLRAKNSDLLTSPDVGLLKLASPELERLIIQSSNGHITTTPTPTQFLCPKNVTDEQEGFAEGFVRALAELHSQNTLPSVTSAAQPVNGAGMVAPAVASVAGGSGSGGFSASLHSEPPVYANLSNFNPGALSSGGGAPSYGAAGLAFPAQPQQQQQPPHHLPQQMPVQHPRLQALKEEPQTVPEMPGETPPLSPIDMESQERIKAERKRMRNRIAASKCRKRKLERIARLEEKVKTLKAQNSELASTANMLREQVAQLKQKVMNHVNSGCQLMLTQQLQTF
FLAG-tagged c-Jun^AA mutant (P05412, form named): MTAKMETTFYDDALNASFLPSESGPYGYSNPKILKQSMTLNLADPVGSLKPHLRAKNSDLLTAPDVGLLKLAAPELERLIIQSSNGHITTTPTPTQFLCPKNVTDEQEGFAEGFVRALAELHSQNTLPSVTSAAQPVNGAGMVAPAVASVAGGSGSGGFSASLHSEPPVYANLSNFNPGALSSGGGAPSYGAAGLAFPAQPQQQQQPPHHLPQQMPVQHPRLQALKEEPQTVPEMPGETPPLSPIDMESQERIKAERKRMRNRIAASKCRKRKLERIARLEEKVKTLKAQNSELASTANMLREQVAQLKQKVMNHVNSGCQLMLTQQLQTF

T1: FLAG-tagged TAp73^58–249 (UniProt O15350)
T1 sequence: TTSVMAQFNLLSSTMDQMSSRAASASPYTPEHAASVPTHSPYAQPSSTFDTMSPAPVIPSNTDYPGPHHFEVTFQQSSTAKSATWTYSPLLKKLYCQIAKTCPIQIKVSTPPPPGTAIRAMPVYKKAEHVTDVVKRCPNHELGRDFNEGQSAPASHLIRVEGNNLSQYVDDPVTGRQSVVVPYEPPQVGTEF

T2: FLAG-tagged TAp73^1–399 (UniProt O15350)
T2 sequence: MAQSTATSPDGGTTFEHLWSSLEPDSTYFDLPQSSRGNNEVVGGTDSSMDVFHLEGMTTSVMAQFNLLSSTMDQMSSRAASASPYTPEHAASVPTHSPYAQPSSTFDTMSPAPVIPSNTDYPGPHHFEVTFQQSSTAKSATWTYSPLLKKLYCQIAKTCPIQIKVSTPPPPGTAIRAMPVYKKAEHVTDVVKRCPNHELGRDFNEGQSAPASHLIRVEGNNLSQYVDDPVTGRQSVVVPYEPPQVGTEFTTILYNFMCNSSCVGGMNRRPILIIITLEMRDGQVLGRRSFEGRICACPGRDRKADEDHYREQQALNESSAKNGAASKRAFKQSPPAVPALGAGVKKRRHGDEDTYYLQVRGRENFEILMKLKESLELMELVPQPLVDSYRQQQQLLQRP

T3: FLAG-tagged TAp73^355–474 (UniProt O15350)
T3 sequence: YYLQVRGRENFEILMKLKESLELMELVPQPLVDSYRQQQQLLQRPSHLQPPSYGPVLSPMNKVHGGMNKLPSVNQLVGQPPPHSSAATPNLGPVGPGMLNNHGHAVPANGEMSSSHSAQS


Columns and labels:
Experiment in all cases: co-IP; modified chromatin immunoprecipitation (ChIP-IP): transfected H1299 cells fixed with 1% formaldehyde 10 min, nuclear pellet lysed in 1% SDS, sonicated, diluted; the FLAG-tagged partner held on anti-FLAG-agarose beads; washes up to 500 mM NaCl and 0.25 M LiCl; cross-links reversed, DNase I; immunoblot. Also done after serum starvation, 20% serum for 4 h (interaction enhanced) or UV irradiation 60 J, 4 h (interaction significantly reduced)
[1] = molecular target: T1, FLAG-tagged TAp73^58–249
[2] = molecular target: T2, FLAG-tagged TAp73^1–399
[3] = molecular target: T3, FLAG-tagged TAp73^355–474
[4] = molecular target: FLAG-tagged c-Jun^AA mutant (UniProt P05412)

Molecule | binding [1] | binding [2] | binding [3] | binding [4]
c-Jun (untagged) (from UniProt P05412 1-331) | no binding | binds | binds | 
TAp73β (untagged) (protein, UniProt O15350-2 1-499) MAQSTATSPDGGTTFEHLWSSLEPDSTYFDLPQSSRGNNEVVGGTDSSMDVFHLEGMTTSVMAQFNLLSSTMDQMSSRAASASPYTPEHAASVPTHSPYAQPSSTFDTMSPAPVIPSNTDYPGPHHFEVTFQQSSTAKSATWTYSPLLKKLYCQIAKTCPIQIKVSTPPPPGTAIRAMPVYKKAEHVTDVVKRCPNHELGRDFNEGQSAPASHLIRVEGNNLSQYVDDPVTGRQSVVVPYEPPQVGTEFTTILYNFMCNSSCVGGMNRRPILIIITLEMRDGQVLGRRSFEGRICACPGRDRKADEDHYREQQALNESSAKNGAASKRAFKQSPPAVPALGAGVKKRRHGDEDTYYLQVRGRENFEILMKLKESLELMELVPQPLVDSYRQQQQLLQRPSHLQPPSYGPVLSPMNKVHGGMNKLPSVNQLVGQPPPHSSAATPNLGPVGPGMLNNHGHAVPANGEMSSSHSAQSMVSGSHCTPPPPYHADPSLVRTWGP |  |  |  | binds
